PubChem BioAssay AID1159584 – Peter MacCallum Cancer Centre, 2016

Screen: 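Genes that CDH1-null MCF10A cells selectively depend on to survive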 (primary screen)
Cells: human MCF10A breast epithelial cells, parental and CDH1-null
Knock-down reagent: siRNA against human genes
Measurement: 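ATP luminescence (CellTiter-Glo) viability per line relative to mean mock wells over all plates, and the ratio of CDH1-null to parental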
Scale: CDH1-null / parental viability ratio: higher = CDH1-null cells survive relatively better than parental; CDH1-null viability vs mock: higher = more viable CDH1-null cells; parental viability vs mock: higher = more viable parental cells
The deposit covers about 18,000 reagents; below is a part drawn at random. The numbers tell different reagents against one gene apart. Reagent sequences are not shown. Not given: the amount of reagent, the time to read-out.

gene	siRNA no.	CDH1-null / parental viability ratio	CDH1-null viability vs mock (fraction of mock)	parental viability vs mock (fraction of mock)
NME5 (NME/NM23 family member 5)	1	0.94	0.94	1
ARHGAP21 (Rho GTPase activating protein 21)	1	1.08	1.32	1.22
FAM168A (family with sequence similarity 168 member A)	1	1.67	0.5	0.3
PLEKHB1 (pleckstrin homology domain containing B1)	1	1.28	0.46	0.36
BIK (BCL2 interacting killer)	1	0.91	0.62	0.68
ZNF343 (zinc finger protein 343)	1	0.89	0.85	0.95
SPR (sepiapterin reductase)	1	1.02	0.94	0.92
INPP5F (inositol polyphosphate-5-phosphatase F)	1	1	0.82	0.82
COG8 (component of oligomeric golgi complex 8)	1	1.11	0.5	0.45
PSKH1 (protein serine kinase H1)	1	1.05	0.9	0.86
ZNF426 (zinc finger protein 426)	1	1.5	0.54	0.36
PPARGC1B (PPARG coactivator 1 beta)	1	0.89	0.66	0.74
CUL3 (cullin 3)	1	1	0.88	0.88
ZNF337 (zinc finger protein 337)	1	1	0.84	0.84
CCDC117 (coiled-coil domain containing 117)	1	1.08	0.82	0.76
POLR3C (RNA polymerase III subunit C)	1	1	0.72	0.72
ADCYAP1 (adenylate cyclase activating polypeptide 1)	1	0.85	0.58	0.68
HLA-E (major histocompatibility complex, class I, E)	1	0.66	0.46	0.7
RPL4 (ribosomal protein L4)	1	1.33	0.48	0.36
DNAAF11 (dynein axonemal assembly factor 11)	1	0.97	0.95	0.98
POPDC1 (popeye domain cAMP effector 1)	1	1.07	1.18	1.1
RAB12 (RAB12, member RAS oncogene family)	1	0.67	0.41	0.61
PRSS58 (serine protease 58)	1	1.17	0.77	0.66
HOXD9 (homeobox D9)	1	1	0.52	0.52
PCNP (PEST proteolytic signal containing nuclear protein)	1	1	0.86	0.86
MMP1 (matrix metallopeptidase 1)	1	1.32	0.82	0.62
NDST4 (N-deacetylase and N-sulfotransferase 4)	1	1.03	1.02	0.99
TATDN3 (TatD DNase domain containing 3)	1	1.03	0.66	0.64
CISD2 (CDGSH iron sulfur domain 2)	1	0.93	1	1.07
ZNF572 (zinc finger protein 572)	1	1.16	0.96	0.83
SERPINC1 (serpin family C member 1)	1	1.13	1.02	0.9
SUCLG1 (succinate-CoA ligase GDP/ADP-forming subunit alpha)	1	0.95	0.79	0.83
SPATA1 (spermatogenesis associated 1)	1	1.12	0.84	0.75
CYP11B1 (cytochrome P450 family 11 subfamily B member 1)	1	0.66	0.46	0.7
TXLNGY (taxilin gamma Y-linked (pseudogene))	1	1.06	0.91	0.86
TXLNGY (taxilin gamma Y-linked (pseudogene))	2	0.74	0.48	0.65
EMC3 (ER membrane protein complex subunit 3)	1	1.15	0.63	0.55
BBS7 (Bardet-Biedl syndrome 7)	1	1.14	0.5	0.44
C1RL (complement C1r subcomponent like)	1	1.69	0.54	0.32
DACT1 (dishevelled binding antagonist of beta catenin 1)	1	1.21	1.29	1.07
ATRX (ATRX chromatin remodeler)	1	1.03	0.89	0.86
IL1RN (interleukin 1 receptor antagonist)	1	0.75	0.62	0.83
TMEM184B (transmembrane protein 184B)	1	1.04	0.94	0.9
GOT1L1 (glutamic-oxaloacetic transaminase 1 like 1)	1	1.08	1.06	0.98
PEPD (peptidase D)	1	1.26	0.53	0.42
PARP10 (poly(ADP-ribose) polymerase family member 10)	1	1.28	1.1	0.86
MT1M (metallothionein 1M)	1	1.06	0.72	0.68
CGRRF1 (cell growth regulator with ring finger domain 1)	1	0.79	0.62	0.78
NKIRAS1 (NFKB inhibitor interacting Ras like 1)	1	0.98	0.65	0.66
TMEM141 (transmembrane protein 141)	1	1	0.42	0.42
CAPN13 (calpain 13)	1	1.07	0.92	0.86
SIGLECL1 (SIGLEC family like 1)	1	0.85	0.58	0.68
SLC43A3	1	1.23	1.01	0.82
NAT2 (N-acetyltransferase 2)	1	0.96	1	1.04
TSPAN2 (tetraspanin 2)	1	0.98	0.87	0.89
DMWD (DM1 locus, WD repeat containing)	1	1.26	0.88	0.7
IL3RA (interleukin 3 receptor subunit alpha)	1	1.12	0.96	0.86
KIAA1143	1	0.86	0.84	0.98
PPP1CB (protein phosphatase 1 catalytic subunit beta)	1	1.14	0.81	0.71
GGTLC1 (gamma-glutamyltransferase light chain 1)	1	0.99	0.83	0.84
CXorf38 (chromosome X open reading frame 38)	1	1.15	1.26	1.1
ZRANB2 (zinc finger RANBP2-type containing 2)	1	0.8	0.6	0.75
HSD17B3 (hydroxysteroid 17-beta dehydrogenase 3)	1	1.1	1.16	1.05
MLLT3 (MLLT3 super elongation complex subunit)	1	1.09	0.94	0.86
CDC37L1 (cell division cycle 37 like 1, HSP90 cochaperone)	1	1.02	0.98	0.96
CSGALNACT1 (chondroitin sulfate N-acetylgalactosaminyltransferase 1)	1	1	0.78	0.78
CCDC126 (coiled-coil domain containing 126)	1	0.93	0.68	0.73
MAGED2 (MAGE family member D2)	1	1.39	1.17	0.84
